{"source": "patent US12017976B1", "about": "“1-(4-carbonoimidoylphenoxy)-3-{4-[(e)-(phenylimino)methyl]phenoxy }propan-2-ol as an eco-friendly insecticidal agent against Spodoptera littoralis (boisd.)” (KING FAISAL UNIVERSITY, priority 2024, dated 2024)", "test_system": "Spodoptera littoralis larvae (2nd and 4th instar)", "assay": "Insecticidal leaf dip bioassay on larvae of the laboratory strain of cotton leafworm", "details": "probit (LDP-line) regression slope, 72 hours"}
{"compound": "CCOC(=O)NCCOc1ccc(Oc2ccccc2)cc1", "note": "[fenoxycarb]", "values": [{"measurement": "Slope, 2nd instar larvae", "setting": "2nd instar larvae", "value": "0.298 ± 0.0808"}, {"measurement": "Slope, 4th instar larvae", "setting": "4th instar larvae", "value": "0.225 ± 0.0870"}]}
